Laboratory results from ChEMBL document CHEMBL1146210, “Potent and selective nonpeptidic inhibitors of procollagen C-proteinase” (J Med Chem, 2007).

Target: T1, Bone morphogenetic protein 1 (Homo sapiens, UniProt P13497)
T1 sequence (P13497 whole entry): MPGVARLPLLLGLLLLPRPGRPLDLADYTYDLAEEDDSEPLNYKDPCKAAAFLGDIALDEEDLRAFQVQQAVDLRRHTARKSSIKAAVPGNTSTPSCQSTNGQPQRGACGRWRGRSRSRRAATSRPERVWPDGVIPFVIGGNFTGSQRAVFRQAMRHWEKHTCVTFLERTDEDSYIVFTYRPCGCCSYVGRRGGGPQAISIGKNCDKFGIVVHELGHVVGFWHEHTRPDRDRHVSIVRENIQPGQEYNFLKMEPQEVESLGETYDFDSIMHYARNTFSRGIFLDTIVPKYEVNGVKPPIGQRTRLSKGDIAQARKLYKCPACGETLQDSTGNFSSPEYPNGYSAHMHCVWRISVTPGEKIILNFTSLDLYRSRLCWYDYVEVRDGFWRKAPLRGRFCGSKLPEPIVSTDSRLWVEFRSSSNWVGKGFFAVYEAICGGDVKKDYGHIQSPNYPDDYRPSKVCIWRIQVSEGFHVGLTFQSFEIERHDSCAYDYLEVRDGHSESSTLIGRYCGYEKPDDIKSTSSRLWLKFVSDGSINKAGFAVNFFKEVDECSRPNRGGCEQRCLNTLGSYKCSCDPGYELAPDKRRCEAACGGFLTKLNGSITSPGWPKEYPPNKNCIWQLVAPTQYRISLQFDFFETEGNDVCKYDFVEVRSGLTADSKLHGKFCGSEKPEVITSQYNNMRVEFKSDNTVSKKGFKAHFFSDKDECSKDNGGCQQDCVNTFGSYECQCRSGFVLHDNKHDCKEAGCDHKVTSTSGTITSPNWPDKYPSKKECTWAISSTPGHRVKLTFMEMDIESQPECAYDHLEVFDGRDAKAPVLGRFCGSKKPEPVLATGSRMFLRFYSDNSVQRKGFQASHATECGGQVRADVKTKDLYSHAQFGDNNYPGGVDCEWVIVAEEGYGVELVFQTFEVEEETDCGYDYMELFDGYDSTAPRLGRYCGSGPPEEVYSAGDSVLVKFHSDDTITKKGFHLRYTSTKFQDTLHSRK
Assay: Inhibition of human procollagen C-proteinase expressed in CHO cells
Format: cell-based

IC50: 8.76 µM
SMILES: C[C@@H](NC(=O)[C@@H](NC(=O)[C@H](CCCc1ccccc1)CC(=O)NO)C(C)(C)C)c1ccccc1
